According to PMC6424967:
No constants are given. Whether binding was seen depends on the method and setting. Binding seen in cells or lysates may run through a third protein. Some binding calls cover weakened binding; strength is not graded here. Sequences can lack the tags named with a protein.

The chains behind the UniProt entries cited, without tags or fusion partners. Where a name states a change or a piece, a line headed by the entry shows the natural chain unless it says otherwise.
UniProt P40337: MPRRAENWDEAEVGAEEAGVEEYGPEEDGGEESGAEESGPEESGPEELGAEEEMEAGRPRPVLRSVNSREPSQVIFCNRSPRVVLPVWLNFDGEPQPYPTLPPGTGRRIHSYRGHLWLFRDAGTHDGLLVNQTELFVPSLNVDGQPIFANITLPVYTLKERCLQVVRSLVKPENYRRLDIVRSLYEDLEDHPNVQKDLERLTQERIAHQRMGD

Key:
[1] = biological target: Flag-VHL K171R (UniProt P40337); test: co-IP; COS-7 cells with Flag-VHL variants and HA-HIF-2α, with or without V5-RSUME (and Gam-1 or Gam-1MUT control vector in Fig. 4c); extracts immunoprecipitated with anti-FLAG; western blot (Fig. 4b-d)
[2] = biological target: Flag-VHL (wild type) (UniProt P40337); test: as above
[3] = biological target: Flag-VHL L188V (UniProt P40337); test: co-IP; COS-7 cells co-transfected with Flag-VHL variants and V5-RSUME; lysed 48 h post transfection in modified RIPA buffer (50 mM Tris-HCl pH 7.4, 1 mM EGTA, 1% NP-40, 150 mM NaCl); immunoprecipitated with anti-FLAG, protein A-agarose, 4 °C; western blot (Fig. 3d, e)
[4] = biological target: Flag-VHL Y112H/K171R (UniProt P40337); test: as above
[5] = biological target: Flag-VHL Y112H (UniProt P40337); test: as above
[6] = biological target: Flag-VHL R167Q/K171R (UniProt P40337); test: as above
[7] = biological target: Flag-VHL L188V/K171R (UniProt P40337); test: as above
[8] = biological target: Flag-VHL R167Q (UniProt P40337); test: as above
[9] = biological target: Flag-VHL L188V (UniProt P40337); test: co-IP; tandem immunoprecipitation: COS-7 cells with Flag-VHL variants, V5-RSUME and HA-HIF-2α, 5 μM MG-132 for 6 h; first IP anti-FLAG, elution with 3xFLAG peptide 100 μg/ml in RIPA buffer 1 h 4 °C, second IP anti-V5; western blot (Fig. 4a)
[10] = biological target: Flag-VHL Y112H (UniProt P40337); test: as above
[11] = biological target: Flag-VHL R167Q (UniProt P40337); test: as above

Measured: binding

B1: V5-RSUME (RWD domain-containing protein SUMO Enhancer) (protein, UniProt Q9Y3V2 1-267)
chain: MAEPVQEELSVLAAIFCRPHEWEVLSRSETDGTVFRIHTKAEGFMDVDIPLELVFHLPVNYPSCLPGISINSEQLTRAQCVTVKENLLEQAESLLSEPMVHELVLWIQQNLRHILSQPETGSGSEKCTFSTSTTMDDGLWITLLHLDHMRAKTKYVKIVEKWASDLRLTGRLMFMGKIILILLQGDRNNLKEYLILQKTSKVDVDSSGKKCKEKMISVLFETKVQTEHKRFLAFEVKEYSALDELQKEFETAGLKKLFSEFVLALVK
binds: all assays above
